These are yes or no findings as the source states them, for the method shown. Some results given as binding are weak or reduced against the parent protein; the word gives no strength.
Target: Human RXRα (clone from a human keratinocyte cDNA library, yeast two-hybrid prey) (human) (UniProt P19793)
Assay: yeast two-hybrid screen, RARγ as bait

By UniProt entry, the sequences of proteins in these tests, tags left out.
UniProt P19793: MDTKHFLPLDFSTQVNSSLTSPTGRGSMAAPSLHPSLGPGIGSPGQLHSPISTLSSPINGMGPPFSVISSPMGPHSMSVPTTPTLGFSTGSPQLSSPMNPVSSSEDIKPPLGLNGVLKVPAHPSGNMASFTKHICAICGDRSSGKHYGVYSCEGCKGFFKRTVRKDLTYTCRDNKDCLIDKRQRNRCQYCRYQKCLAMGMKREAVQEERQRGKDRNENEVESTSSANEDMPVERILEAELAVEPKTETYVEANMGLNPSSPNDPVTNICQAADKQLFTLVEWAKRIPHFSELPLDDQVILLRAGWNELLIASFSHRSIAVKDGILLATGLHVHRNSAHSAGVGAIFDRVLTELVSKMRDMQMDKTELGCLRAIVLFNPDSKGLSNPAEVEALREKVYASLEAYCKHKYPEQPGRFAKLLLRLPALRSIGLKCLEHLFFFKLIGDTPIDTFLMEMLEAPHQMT

binding: binds
B1: RARγ (yeast two-hybrid bait) (receptor, UniProt P13631 1-454, looked up)
chain: MATNKERLFAAGALGPGSGYPGAGFPFAFPGALRGSPPFEMLSPSFRGLGQPDLPKEMASLSVETQSTSSEEMVPSSPSPPPPPRVYKPCFVCNDKSSGYHYGVSSCEGCKGFFRRSIQKNMVYTCHRDKNCIINKVTRNRCQYCRLQKCFEVGMSKEAVRNDRNKKKKEVKEEGSPDSYELSPQLEELITKVSKAHQETFPSLCQLGKYTTNSSADHRVQLDLGLWDKFSELATKCIIKIVEFAKRLPGFTGLSIADQITLLKAACLDILMLRICTRYTPEQDTMTFSDGLTLNRTQMHNAGFGPLTDLVFAFAGQLLPLEMDDTETGLLSAICLICGDRMDLEEPEKVDKLQEPLLEALRLYARRRRPSQPYMFPRMLMKITDLRGISTKGAERAITLKMEIPGPMPPLIREMLENPEMFEDDSSQPGPHPNASSEDEVPGGQGKGGLKSPA
